# Record: PubChem BioAssay AID1259254 (NCATS, 2017)
# Aim: 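Finding genes that stop cells copying their DNA twice in one cycle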 (primary screen)
# Cell system: human HCT116 colorectal cancer cells
# Knock-down reagent: single siRNA against human genes
# Timing: 3 days
# Measurement: 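Nuclei stained with Hoechst and imaged; cell-cycle phase assigned by DNA content; G2 share scaled per plate, non-targeting siRNA 0%, GMNN siRNA 100%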
# Reading the numbers: G2 robust z-score and G2 cells, % of GMNN control: higher = more G2 cells, more excess DNA replication; raw share of cells in G2: higher = larger share of cells with G2 DNA content
# Hit rule: 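Active siRNAs have a G2 robust z of 5 or more median absolute deviations over the median, which in these data means about 38% or higher of GMNN control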
# The deposit covers about 59,000 reagents; below is a part drawn at random. About 1,550 of all reagents (2.6%) were called active. 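G2 share is only a proxy for re-replication; each gene was hit by three separate siRNAs, and active genes were retested.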 Raw values vary from plate to plate and are shown uncorrected. A number with no mark means an inactive call. Not stated in the record: the amount of reagent.
target,PubChem SID,G2 robust z-score,"G2 cells, % of GMNN control",raw share of cells in G2 (%)
RPL35P1,SID160725402,1.4,12.8,8.28
RPL35P1,SID160725403,2.51,20.6,10.1
RPL35P1,SID160767856,-0.64,-1.54,3.03
GPR50,SID160721809,-0.701,-1.96,5.14
GPR50,SID160721810,-0.794,-2.62,3.6
GPR50,SID160721811,0.394,5.74,5.03
GRAMD1A,SID160746505,-0.077,2.43,5.3
GRAMD1A,SID160746507,-0.601,-1.26,3.86
GRAMD1A,SID160746508,0.102,3.69,4.2
CEACAM18,SID160773139,0.00927,3.03,5.28
CEACAM18,SID160773140,2.32,19.3,9.74
CEACAM18,SID160773141,-0.448,-0.182,3.11
KRAS,SID160776367,2.48,20.4,12.5
KRAS,SID160776368,-1.34,-6.46,3.22
KRAS,SID160776370,-0.816,-2.77,3.19

Only “G2 cells, % of GMNN control”, for 2 of the entries above:
GPR50 [SID160721811]	5.74
GRAMD1A [SID160746505]	2.43

The listing continues.
target,PubChem SID,G2 robust z-score,"G2 cells, % of GMNN control",raw share of cells in G2 (%)
SETDB2,SID160751425,2.46,20.3,11.5
SETDB2,SID160751426,-0.594,-1.21,4.93
SETDB2,SID160751427,-0.471,-0.343,4.66
CIMIP2C,SID160764294,0.0418,3.26,5.11
CIMIP2C,SID160764295,1.87,16.1,10.3
CIMIP2C,SID160764296,0.237,4.64,6.06
IRS1,SID160775938,3.24,25.8,15.9
IRS1,SID160775939,7.28 (active),54.2,25.6
IRS1,SID160775940,-0.173,1.75,3.99
HOXC10,SID160775235,1.09,10.7,8.92
HOXC10,SID160775236,-1.31,-6.24,3.31
HOXC10,SID160775237,0.209,4.44,5.83
NR2C1,SID160718308,-0.46,-0.268,5.59
NR2C1,SID160718309,-1.07,-4.59,2.97
NR2C1,SID160718310,-0.784,-2.55,3.11
